Laboratory results as given in the supplement of paper PMC7666118.
The list shows a part of the results.

Protein sequences, listed by entry. Tags and fused reporters are not part of them. Lines headed by an entry give the natural chain unless they say otherwise; changes in a name come on top.
UniProt Q14202: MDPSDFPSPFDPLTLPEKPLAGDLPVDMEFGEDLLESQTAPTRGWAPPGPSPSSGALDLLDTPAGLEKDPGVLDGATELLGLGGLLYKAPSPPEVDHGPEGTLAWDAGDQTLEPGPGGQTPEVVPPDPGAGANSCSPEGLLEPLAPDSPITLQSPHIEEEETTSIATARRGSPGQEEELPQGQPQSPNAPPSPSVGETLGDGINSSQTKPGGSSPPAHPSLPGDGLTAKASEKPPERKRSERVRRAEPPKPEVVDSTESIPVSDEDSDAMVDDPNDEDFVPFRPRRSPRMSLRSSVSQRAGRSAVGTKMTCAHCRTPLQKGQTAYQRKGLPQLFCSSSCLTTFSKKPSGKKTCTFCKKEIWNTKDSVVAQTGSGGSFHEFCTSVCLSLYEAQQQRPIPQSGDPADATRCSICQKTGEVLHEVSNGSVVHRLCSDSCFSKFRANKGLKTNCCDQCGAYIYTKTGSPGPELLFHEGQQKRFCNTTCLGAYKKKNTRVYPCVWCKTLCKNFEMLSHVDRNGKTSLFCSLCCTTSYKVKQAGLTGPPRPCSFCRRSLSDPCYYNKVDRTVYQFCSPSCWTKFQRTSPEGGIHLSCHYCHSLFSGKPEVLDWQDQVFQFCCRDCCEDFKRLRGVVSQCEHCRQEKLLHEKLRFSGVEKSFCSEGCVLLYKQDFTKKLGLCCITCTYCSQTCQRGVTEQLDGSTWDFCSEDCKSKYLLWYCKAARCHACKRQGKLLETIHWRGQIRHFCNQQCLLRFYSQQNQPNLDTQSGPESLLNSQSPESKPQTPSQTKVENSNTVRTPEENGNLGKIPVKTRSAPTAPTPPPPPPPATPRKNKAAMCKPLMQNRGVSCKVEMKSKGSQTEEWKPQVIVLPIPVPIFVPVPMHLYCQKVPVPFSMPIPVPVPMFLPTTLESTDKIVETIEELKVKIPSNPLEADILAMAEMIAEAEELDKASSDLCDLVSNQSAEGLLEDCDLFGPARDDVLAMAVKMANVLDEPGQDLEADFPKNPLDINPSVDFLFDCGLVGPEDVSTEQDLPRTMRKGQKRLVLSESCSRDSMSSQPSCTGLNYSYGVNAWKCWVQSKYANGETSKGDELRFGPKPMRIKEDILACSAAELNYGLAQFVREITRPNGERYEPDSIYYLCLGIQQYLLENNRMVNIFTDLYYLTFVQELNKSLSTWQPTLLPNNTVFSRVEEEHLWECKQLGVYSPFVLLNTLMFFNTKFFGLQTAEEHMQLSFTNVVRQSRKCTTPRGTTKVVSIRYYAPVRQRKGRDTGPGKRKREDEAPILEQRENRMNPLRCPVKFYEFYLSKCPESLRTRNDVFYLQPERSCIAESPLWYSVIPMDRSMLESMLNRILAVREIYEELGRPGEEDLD
UniProt O75351, whole entry: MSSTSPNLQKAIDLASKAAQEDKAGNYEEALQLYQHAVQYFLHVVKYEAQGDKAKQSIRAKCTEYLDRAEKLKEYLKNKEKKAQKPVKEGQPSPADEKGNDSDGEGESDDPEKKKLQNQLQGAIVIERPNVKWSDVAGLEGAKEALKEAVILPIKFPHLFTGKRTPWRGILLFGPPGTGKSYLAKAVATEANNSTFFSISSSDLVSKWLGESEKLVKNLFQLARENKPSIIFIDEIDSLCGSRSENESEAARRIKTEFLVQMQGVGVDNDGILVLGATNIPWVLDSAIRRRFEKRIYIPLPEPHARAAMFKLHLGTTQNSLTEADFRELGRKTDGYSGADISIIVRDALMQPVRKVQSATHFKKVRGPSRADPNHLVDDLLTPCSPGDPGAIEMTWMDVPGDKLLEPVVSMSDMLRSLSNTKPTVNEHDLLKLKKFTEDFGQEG
UniProt Q9Y548: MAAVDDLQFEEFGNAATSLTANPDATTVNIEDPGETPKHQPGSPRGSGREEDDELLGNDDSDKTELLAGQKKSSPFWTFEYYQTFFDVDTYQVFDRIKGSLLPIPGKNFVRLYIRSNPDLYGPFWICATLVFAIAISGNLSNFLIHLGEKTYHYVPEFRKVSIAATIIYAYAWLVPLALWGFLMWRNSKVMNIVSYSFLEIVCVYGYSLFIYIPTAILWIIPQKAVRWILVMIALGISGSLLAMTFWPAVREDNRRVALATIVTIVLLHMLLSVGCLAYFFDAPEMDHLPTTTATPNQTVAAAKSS
UniProt Q9BRU9: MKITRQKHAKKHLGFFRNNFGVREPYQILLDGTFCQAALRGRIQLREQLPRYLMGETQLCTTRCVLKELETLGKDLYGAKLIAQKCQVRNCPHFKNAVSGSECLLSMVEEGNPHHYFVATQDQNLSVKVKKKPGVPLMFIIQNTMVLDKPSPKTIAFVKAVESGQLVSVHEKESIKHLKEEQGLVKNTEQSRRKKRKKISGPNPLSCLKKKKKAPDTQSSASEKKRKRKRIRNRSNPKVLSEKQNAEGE
UniProt Q9BVJ6: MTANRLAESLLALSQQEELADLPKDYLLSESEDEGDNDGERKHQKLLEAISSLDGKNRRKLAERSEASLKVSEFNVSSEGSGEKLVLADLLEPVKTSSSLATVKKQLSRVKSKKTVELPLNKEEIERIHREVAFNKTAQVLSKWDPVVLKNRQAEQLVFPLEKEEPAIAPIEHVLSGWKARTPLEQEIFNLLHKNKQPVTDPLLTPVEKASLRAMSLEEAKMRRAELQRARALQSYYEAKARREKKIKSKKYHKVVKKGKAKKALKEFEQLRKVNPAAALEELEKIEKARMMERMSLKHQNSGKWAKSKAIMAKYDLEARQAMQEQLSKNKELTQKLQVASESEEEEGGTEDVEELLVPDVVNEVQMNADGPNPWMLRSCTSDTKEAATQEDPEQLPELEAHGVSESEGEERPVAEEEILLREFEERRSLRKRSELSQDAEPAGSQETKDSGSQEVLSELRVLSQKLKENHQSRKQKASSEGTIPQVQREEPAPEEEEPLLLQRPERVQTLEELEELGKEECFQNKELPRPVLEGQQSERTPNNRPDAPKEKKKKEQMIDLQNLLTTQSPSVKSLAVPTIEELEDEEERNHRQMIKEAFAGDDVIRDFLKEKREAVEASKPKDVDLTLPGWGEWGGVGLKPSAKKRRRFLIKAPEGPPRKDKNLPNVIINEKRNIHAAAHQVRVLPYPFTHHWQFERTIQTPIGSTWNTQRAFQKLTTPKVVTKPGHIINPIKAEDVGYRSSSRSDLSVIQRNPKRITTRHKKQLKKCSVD
UniProt O15213: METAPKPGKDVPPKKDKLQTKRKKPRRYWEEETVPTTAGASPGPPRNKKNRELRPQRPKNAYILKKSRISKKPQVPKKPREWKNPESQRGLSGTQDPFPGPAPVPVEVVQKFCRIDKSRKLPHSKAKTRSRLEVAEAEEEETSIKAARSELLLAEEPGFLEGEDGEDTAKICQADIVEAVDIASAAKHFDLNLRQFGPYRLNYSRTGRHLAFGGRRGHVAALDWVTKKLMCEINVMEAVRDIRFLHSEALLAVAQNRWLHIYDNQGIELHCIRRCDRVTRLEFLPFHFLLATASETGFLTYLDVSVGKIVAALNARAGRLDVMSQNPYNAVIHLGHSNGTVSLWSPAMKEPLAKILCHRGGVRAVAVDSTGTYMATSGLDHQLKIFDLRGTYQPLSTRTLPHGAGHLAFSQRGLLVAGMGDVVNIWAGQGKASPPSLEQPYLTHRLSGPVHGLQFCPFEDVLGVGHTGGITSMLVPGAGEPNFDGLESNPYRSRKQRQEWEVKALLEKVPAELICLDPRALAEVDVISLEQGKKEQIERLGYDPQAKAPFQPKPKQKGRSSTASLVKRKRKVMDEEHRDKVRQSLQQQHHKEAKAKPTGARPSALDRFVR
UniProt P40818: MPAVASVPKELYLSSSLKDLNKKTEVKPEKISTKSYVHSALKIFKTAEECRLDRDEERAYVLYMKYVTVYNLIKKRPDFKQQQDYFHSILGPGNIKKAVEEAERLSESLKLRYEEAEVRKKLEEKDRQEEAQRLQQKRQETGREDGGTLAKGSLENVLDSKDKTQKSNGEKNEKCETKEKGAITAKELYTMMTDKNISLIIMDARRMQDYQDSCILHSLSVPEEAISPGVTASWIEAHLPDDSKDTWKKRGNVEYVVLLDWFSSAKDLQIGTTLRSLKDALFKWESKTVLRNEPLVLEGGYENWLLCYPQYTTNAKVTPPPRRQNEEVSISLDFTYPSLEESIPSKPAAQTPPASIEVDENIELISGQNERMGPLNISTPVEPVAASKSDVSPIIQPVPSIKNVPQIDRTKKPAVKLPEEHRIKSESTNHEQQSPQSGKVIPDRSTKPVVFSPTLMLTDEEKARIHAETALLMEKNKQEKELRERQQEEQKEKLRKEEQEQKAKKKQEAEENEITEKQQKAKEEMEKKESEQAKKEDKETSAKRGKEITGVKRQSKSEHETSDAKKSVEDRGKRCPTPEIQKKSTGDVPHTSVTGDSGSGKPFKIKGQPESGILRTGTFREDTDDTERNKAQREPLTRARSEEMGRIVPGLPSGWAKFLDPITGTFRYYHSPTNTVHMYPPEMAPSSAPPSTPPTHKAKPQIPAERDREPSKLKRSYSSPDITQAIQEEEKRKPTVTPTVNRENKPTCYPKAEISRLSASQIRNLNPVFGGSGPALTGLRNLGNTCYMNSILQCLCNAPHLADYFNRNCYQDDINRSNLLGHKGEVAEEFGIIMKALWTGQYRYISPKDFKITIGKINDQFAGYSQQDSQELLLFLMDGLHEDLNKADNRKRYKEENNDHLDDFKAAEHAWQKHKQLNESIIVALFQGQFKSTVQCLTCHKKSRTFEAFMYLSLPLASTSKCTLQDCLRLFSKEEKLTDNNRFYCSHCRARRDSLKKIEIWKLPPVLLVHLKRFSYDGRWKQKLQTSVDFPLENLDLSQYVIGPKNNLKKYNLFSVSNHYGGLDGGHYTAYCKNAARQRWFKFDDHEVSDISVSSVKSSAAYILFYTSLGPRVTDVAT
UniProt P67809, whole entry: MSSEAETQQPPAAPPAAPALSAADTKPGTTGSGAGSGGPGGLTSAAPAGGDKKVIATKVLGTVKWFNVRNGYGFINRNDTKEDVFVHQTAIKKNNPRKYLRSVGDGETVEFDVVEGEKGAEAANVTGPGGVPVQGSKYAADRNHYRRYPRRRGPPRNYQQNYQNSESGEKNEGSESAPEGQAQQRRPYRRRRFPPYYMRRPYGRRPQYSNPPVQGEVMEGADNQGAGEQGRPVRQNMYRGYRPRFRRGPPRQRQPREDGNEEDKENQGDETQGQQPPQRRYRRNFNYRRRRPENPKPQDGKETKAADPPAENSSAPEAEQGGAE
UniProt Q8IUH4: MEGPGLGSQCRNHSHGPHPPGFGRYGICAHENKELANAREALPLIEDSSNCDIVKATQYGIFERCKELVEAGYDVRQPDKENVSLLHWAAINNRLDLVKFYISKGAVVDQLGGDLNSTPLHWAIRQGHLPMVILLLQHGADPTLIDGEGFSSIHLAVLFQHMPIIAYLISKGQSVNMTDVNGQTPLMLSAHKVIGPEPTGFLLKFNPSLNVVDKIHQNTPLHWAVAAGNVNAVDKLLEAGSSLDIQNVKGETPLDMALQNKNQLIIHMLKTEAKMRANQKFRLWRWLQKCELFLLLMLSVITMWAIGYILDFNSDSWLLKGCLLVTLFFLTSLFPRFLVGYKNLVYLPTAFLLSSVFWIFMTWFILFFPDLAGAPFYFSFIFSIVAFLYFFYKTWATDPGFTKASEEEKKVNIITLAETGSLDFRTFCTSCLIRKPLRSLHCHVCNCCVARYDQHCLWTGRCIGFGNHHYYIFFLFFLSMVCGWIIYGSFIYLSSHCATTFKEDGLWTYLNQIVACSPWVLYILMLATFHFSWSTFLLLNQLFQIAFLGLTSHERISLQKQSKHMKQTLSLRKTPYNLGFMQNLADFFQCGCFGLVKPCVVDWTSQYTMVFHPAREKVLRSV
UniProt Q8N5A5: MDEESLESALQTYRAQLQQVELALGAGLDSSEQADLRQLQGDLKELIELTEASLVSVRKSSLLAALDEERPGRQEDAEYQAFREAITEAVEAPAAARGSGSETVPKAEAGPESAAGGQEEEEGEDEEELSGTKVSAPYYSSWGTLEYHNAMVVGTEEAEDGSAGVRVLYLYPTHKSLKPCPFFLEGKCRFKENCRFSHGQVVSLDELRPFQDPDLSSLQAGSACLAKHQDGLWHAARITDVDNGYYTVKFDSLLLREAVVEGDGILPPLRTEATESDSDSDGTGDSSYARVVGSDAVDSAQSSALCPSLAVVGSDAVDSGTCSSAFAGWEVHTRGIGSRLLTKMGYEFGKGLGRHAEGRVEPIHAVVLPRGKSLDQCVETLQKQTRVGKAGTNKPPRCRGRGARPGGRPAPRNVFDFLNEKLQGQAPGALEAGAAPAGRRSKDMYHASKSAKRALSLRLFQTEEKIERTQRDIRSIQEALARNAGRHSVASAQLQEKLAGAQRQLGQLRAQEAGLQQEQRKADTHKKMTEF

compound: COc1ccc(Cn2ccc3ccc(C(=O)NO)cc32)cc1; experiment: dose-dependent thermal stabilisation call (2D-TPP, DLPTP, 10% FDR) (binary (1 = stabilised)); higher = stabilised by the compound; details: system: HL-60 intact cells; concentration range 0.04-10 µM

| Target | dose-dependent thermal stabilisation call |
| --- | --- |
| WDR59 (UniProt Q6PJI9) | inactive: 0 |
| ZMYM3 (UniProt Q14202) | inactive: 0 |
| VPS4B (UniProt O75351) | inactive: 0 |
| YY1 (UniProt P25490) | inactive: 0 |
| ZMIZ2 (UniProt Q8NF64) | inactive: 0 |
| YIPF1 (UniProt Q9Y548) | inactive: 0 |
| VAV3 (UniProt Q9UKW4) | inactive: 0 |
| WDFY1 (UniProt Q8IWB7) | inactive: 0 |
| ZBTB24 (UniProt O43167) | inactive: 0 |
| WDR42A (UniProt Q5TAQ9) | inactive: 0 |
| UTP23 (UniProt Q9BRU9) | inactive: 0 |
| WDR33 (UniProt Q9C0J8) | inactive: 0 |
| UTP14A (UniProt Q9BVJ6) | inactive: 0 |
| WDR26 (UniProt Q9H7D7) | inactive: 0 |
| XPNPEP3 (UniProt Q9NQH7) | active: 1 |
| ZEB2 (UniProt O60315) | inactive: 0 |
| WDR46 (UniProt O15213) | inactive: 0 |
| ZAK (UniProt Q9NYL2) | inactive: 0 |
| WDR7 (UniProt Q9Y4E6) | inactive: 0 |
| YEATS2 (UniProt Q9ULM3) | inactive: 0 |
| XPOT (UniProt O43592) | inactive: 0 |
| YTHDC2 (UniProt Q9H6S0) | inactive: 0 |
| USP8 (UniProt P40818) | inactive: 0 |
| YBX1 (UniProt P67809) | inactive: 0 |
| ZDHHC13 (UniProt Q8IUH4) | inactive: 0 |
| WDR85 (UniProt Q9BTV6) | inactive: 0 |
| ZGPAT (UniProt Q8N5A5) | inactive: 0 |

Retrieved one by one from the entries so far:

| Target | dose-dependent thermal stabilisation call |
| --- | --- |
| XPNPEP3 (UniProt Q9NQH7) | active: 1 |
| ZDHHC13 (UniProt Q8IUH4) | inactive: 0 |
